# From paper PMC7819943, “Rice protein-binding microarrays: a tool to detect cis-acting elements near promoter regions in rice”
# The list shows a part of the results.
# Molecular target: T1, OsSMF1 (Oryza sativa, UniProt Q6ZLB0 1-436)
# T1 sequence: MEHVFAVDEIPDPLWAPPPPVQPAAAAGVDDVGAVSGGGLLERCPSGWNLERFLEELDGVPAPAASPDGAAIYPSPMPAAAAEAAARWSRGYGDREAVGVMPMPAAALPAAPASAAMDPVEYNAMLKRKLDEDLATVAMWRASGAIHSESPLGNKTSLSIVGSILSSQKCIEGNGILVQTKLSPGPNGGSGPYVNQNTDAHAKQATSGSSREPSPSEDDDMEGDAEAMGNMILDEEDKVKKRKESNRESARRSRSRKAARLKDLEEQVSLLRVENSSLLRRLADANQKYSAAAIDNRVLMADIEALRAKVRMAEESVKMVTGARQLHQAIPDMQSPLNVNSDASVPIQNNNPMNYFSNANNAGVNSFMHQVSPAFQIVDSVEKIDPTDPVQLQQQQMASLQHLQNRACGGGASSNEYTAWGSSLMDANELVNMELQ
# Assay: protein-binding microarray (RPBM); PBS, 2% BSA, 51.3 ng/ul salmon testes DNA, 50 uM zinc acetate, 200 nM TF, 25 C, 1 h; high values mean tight binding
# Settings: protein: recombinant; tags: N-terminal polyhistidine and DsRed monomer fusion (pET32a); chain copies: 2; label: CyDye5-dUTP incorporated in the synthesized complementary strand; 3' TTTTT single-stranded linker to array surface; dsDNA, one strand shown
# Outline: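 The binding signal for each feature is its fluorescence intensity in arbitrary units. An Axon 4000B scanner was used to read a custom Agilent array that had been made double-stranded with Cy5-dUTP primer extension, blocked with 2% BSA, incubated at 25 °C for 1 h with 200 nM protein in PBS, 2% BSA, salmon testes DNA and 50 µM zinc acetate, and washed. The protein was an N-terminal polyhistidine–DsRed transcription factor fusion from E. coli BL21-CodonPlus, purified on Ni–NTA.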
row,Sequence,binding signal
1,CAGCCAAAAGCCGTCCATGTCGTCGTGTCGATCAACCCACCGGAGTCACCTAGTGCAG,3880 fluorescence intensity (a.u.)
2,ATTAACTACATTGCCATGTAGGACTTTTAGCTTACGTAACCGGAGTCACCTAGTGCAG,5050 fluorescence intensity (a.u.)
3,CAACAATACAGTTATTGGTAATTACAAGCTACTAGTATACCGGAGTCACCTAGTGCAG,18600 fluorescence intensity (a.u.)
4,GTCCGGGCCACCGTAAGCGGGTACGTGTCCACTGTCCAGACGGAGTCACCTAGTGCAG,4320 fluorescence intensity (a.u.)
5,TTTCACTTTGACTAGAAGCACATGTCATCGATTTTCCTTCCGGAGTCACCTAGTGCAG,3980 fluorescence intensity (a.u.)
6,TTACACGGCCACGTTGGCTGGCGTCGCGGGCCTCGCCTCGCGGAGTCACCTAGTGCAG,6190 fluorescence intensity (a.u.)
7,CACTTGCTCATTCAGCAGCAGCAGCAGCAGCATCAGCATCCGGAGTCACCTAGTGCAG,3710 fluorescence intensity (a.u.)
8,TAACTTCATGACTGGTTTTCTTGGAATCTGCTTATCAGTTCGGAGTCACCTAGTGCAG,4540 fluorescence intensity (a.u.)
9,TGGCCAGACCAGCAACGATGATGTTCGAGCGTCATTCCCCCGGAGTCACCTAGTGCAG,3550 fluorescence intensity (a.u.)
10,ACGGTGGAGTGGTCGAGTGGATAAGGATTCCACATCGACGCGGAGTCACCTAGTGCAG,3510 fluorescence intensity (a.u.)
11,AAGCGCCAAGCCAGGCAGCTGAGTCAAACATACGCGGTCCCGGAGTCACCTAGTGCAG,4580 fluorescence intensity (a.u.)
12,TGCTCCATTATTGTGCTCCATGTCGACACAAAGCGAACAACGGAGTCACCTAGTGCAG,3430 fluorescence intensity (a.u.)
13,AGTTATTTTGGTAGTCGAGAATTGTGATGTTATTTCATTCCGGAGTCACCTAGTGCAG,20400 fluorescence intensity (a.u.)
14,GGGATTAGGGATGTCATACATGACTCGACGCAGAGCTGAGCGGAGTCACCTAGTGCAG,4440 fluorescence intensity (a.u.)
15,GATTAAAACCAAAACTCATGATGGAAGTGGATGCATTTGCCGGAGTCACCTAGTGCAG,25500 fluorescence intensity (a.u.)
16,GGAGTTGGTAGCGGCATCAGATTAGTAAATTTTACCGCGGCGGAGTCACCTAGTGCAG,3910 fluorescence intensity (a.u.)
17,ACCCACGCACTCACTGACGATGCAATGCGGCCATATGCTACGGAGTCACCTAGTGCAG,3240 fluorescence intensity (a.u.)
18,ATAAGTACGAATACTAAGTACGTGTGTGTTTGGAGGGTGTCGGAGTCACCTAGTGCAG,4340 fluorescence intensity (a.u.)
19,CGTGGACCCACCTAGGTGGGGCCCACCGTCAGTGGGAGATCGGAGTCACCTAGTGCAG,3940 fluorescence intensity (a.u.)
20,TAGGTTTGTCCTGAAAACCTTCCGTTTTGCCCACAAGACGCGGAGTCACCTAGTGCAG,5380 fluorescence intensity (a.u.)
21,TCTCGCACTTTACACGTGGAATATGTAATTTGTTTTGTTACGGAGTCACCTAGTGCAG,7060 fluorescence intensity (a.u.)

row,Sequence,binding signal
1,CCTCCGACATCTCCAGCCAATTCCAGCTCAGCTCTCGCCGCGGAGTCACCTAGTGCAG,4150 fluorescence intensity (a.u.)
2,GCATACTGCTAGTGTATACACGTACGTATACGGGAGTAGTCGGAGTCACCTAGTGCAG,5410 fluorescence intensity (a.u.)
3,CTGCGAGGTGGTGGGAGGAAGCGGAAGCCGACGAGGAGCGCGGAGTCACCTAGTGCAG,25400 fluorescence intensity (a.u.)
4,ACGCACACACACACACACGCTGACACACGAGACGAACACTCGGAGTCACCTAGTGCAG,4700 fluorescence intensity (a.u.)
5,ATTTATAATATTGCTGATTTTCCCGAGCTGTTACAACTCCCGGAGTCACCTAGTGCAG,3260 fluorescence intensity (a.u.)
6,GGATAAAGGATAATGTACAGTAAGATGATCTAACGCCATGCGGAGTCACCTAGTGCAG,3370 fluorescence intensity (a.u.)
7,CATTTGTGTTGATGTGTGTTGTGCTGGCTTATTTCATGTACGGAGTCACCTAGTGCAG,3920 fluorescence intensity (a.u.)
8,TCACATCCACGTATATTCCCTTCCCCTTCTCCAACCTTTCCGGAGTCACCTAGTGCAG,9390 fluorescence intensity (a.u.)
9,CTCCTCCTCCTCGTCATCGTCATCACCAGCACACACCCGACGGAGTCACCTAGTGCAG,4510 fluorescence intensity (a.u.)
10,TTCCTATCATCTAAGGTAACCCTTGGTCATCACCGATTCACGGAGTCACCTAGTGCAG,3780 fluorescence intensity (a.u.)
11,GGGACCACCAACCTCCATGACACGTCAGCGGCACATCCGCCGGAGTCACCTAGTGCAG,26000 fluorescence intensity (a.u.)
12,TGCCATTGCCATTGGACACATCATCGCCATTTCTGACACTCGGAGTCACCTAGTGCAG,8500 fluorescence intensity (a.u.)
13,ATTCTCGACCGAAACTGACGTCGCCGCAGTGGTGCAGCCGCGGAGTCACCTAGTGCAG,3590 fluorescence intensity (a.u.)
14,GCGTATAAATACCGTGGCGTGGCGTGGCGCGGCACGGGACCGGAGTCACCTAGTGCAG,3420 fluorescence intensity (a.u.)
15,AGTTAATGTATGTATGTGTGTTTTATATTATGAGACATTACGGAGTCACCTAGTGCAG,3200 fluorescence intensity (a.u.)
16,ATCATCCCATCCCATCTCATCCGTCCATCCGCCAACTCATCGGAGTCACCTAGTGCAG,5490 fluorescence intensity (a.u.)
17,CATCATCGTCAAGGCTGTGAACGCCGCCACCAGGGGCGCCCGGAGTCACCTAGTGCAG,9700 fluorescence intensity (a.u.)
18,GGCTCATGCAACCAGCGAGGGCAGCCACGTGGGTCGTGTACGGAGTCACCTAGTGCAG,9880 fluorescence intensity (a.u.)
19,AATAGTTTGGGACGTGTCTTCTCCGTCATTAGACTTCAAGCGGAGTCACCTAGTGCAG,6910 fluorescence intensity (a.u.)
20,ACAGTCGCCTTCTCCATCGTCTCGTCTTGGTAGGTGGTGGCGGAGTCACCTAGTGCAG,17800 fluorescence intensity (a.u.)
21,CACCAAGTATGATGGGCCCATGGCCAATGATAATACCTCGCGGAGTCACCTAGTGCAG,29800 fluorescence intensity (a.u.)

# Quoted at random: 3 records from the list, in no set order.
row,Sequence,binding signal
3,CTGCGAGGTGGTGGGAGGAAGCGGAAGCCGACGAGGAGCGCGGAGTCACCTAGTGCAG,25400 fluorescence intensity (a.u.)
4,ACGCACACACACACACACGCTGACACACGAGACGAACACTCGGAGTCACCTAGTGCAG,4700 fluorescence intensity (a.u.)
18,GGCTCATGCAACCAGCGAGGGCAGCCACGTGGGTCGTGTACGGAGTCACCTAGTGCAG,9880 fluorescence intensity (a.u.)
